Measured values taken from PubChem BioAssay AID1347423 (Functional Genomics Laboratory (NCATS/FGL), 2020).
The whole screen tested about 52,000 sequences, of which about 210 (0.4%) were called active.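 How the source made its calls: active means gene whose silencing raises cell survival under the drug, median off-target-corrected z-score across its silencing RNAs 2 or more; inactive means the rest.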 The list shows a part of the results.

Assay: Resistance to Poly (ADP-Ribose) Polymerase inhibitor: Gene Identification via Genome-wide siRNA Screen
Details: mouse BRCA2 R2336H ES cells, olaparib, CellTiter-Glo viability; active compounds read high
How it was run: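 Genome-wide siRNA screen (3 siRNAs/gene, 20 nM) in mouse ES cells carrying hypomorphic BRCA2 R2336H; olaparib 500 nM added 48 h post-transfection, CellTiter-Glo viability 72 h later. Normalized to plate-median negative control; MAD z-scores, gene median, seed-adjusted.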
In the case of CCUUUGGACGCAACCAGUUTT against Ugt1a9, the z-score is reported as inactive: -1.52. With GAGUGAUGCGCAUUUCGAGTT against Sf3b5 the z-score was inactive: -0.551. With “GCCAAGCUUACUCAGAUUUTT against 4732467B22” the z-score was inactive: 0.837. In the case of GGACUAGACUGUGAAAUGATT against Satb2, the z-score is reported as inactive: -1.45. With “GCUUGAGAUACCAGAACCATT against 9530049C15Rik” the z-score was inactive: -0.472. For GGAUUAUGCCCUUCAUUGGTT against Rbbp7, the z-score was inactive: -0.812. With “GGAGGAUCCUGAACGAAAATT against 2410018M14Rik” the z-score was inactive: 1.07. With CCUGUCUGUUUGAGGACGUTT against Adora2a the z-score was inactive: 0.42. In the case of GGAUUCAAGAAGUAAAUCCTT against Uty, the z-score is reported as inactive: 0.728. With GUGCUCAGUUCCAAUUCCATT against Neurog3 the z-score was inactive: 0.132. For “GGUUUCACAUUCAUCAACUTT against G630039H03Rik”, the z-score was inactive: 2.55. In the case of “GGCCUUGAAGGAGAUGCUATT against 4631403P03Rik”, the z-score is reported as inactive: 0.21. In the case of GCAUCCUUCACUCAAAUAUTT against Aspa, the z-score is reported as inactive: -0.271. In the case of “GGCCUUGAAAUACUAUAAGTT against A430025D11Rik”, the z-score is reported as inactive: -0.526. For GGCCUAUCUUCUUUACAUATT against Ctbs, the z-score was inactive: 0.182. In the case of GGAGAUGGCCACCUAUUUGTT against Csnk1g2, the z-score is reported as inactive: 0.743. With GCCACUCGUAUGAACAUCUTT against Gm237 the z-score was inactive: 1. In the case of “GGACCACACGUCAAAAUGATT against 2610022G08Rik”, the z-score is reported as inactive: 0.959. With CCUGUUUGUACUACUCUUUTT against Krt2-16 the z-score was inactive: -0.309. For GCAGCUGAUCACUGGAAAGTT against Tuba3, the z-score was inactive: -0.156. In the case of “GGCUGAGUCUACCAACAGUTT against 9930017A07Rik”, the z-score is reported as inactive: 0.613. In the case of GGAGUGGUUUGAGGACAGCTT against Ppfibp2, the z-score is reported as inactive: -0.591. With GGAAUUACUCACAUGCUAATT against Tlr7 the z-score was inactive: -0.968. In the case of “GCUUUAAUGCCUAUUGCAATT against 2210421G13Rik”, the z-score is reported as inactive: -0.111. With GCCCACCAAUAUUUUGCUUTT against Stk16 the z-score was inactive: 0.723. In the case of GGUAUUUGUCUGUAAUUUGTT against Ddx50, the z-score is reported as inactive: -0.652. With GGCUAGCAUUAGCCACAGATT against Enpp3 the z-score was inactive: 0.649. With GGGCAGCUUUGAGAAAGCCTT against Rrad the z-score was inactive: 0.0689. In the case of GGAGGACAAACAGCUUCAATT against Psmd2, the z-score is reported as inactive: -2.7. For GCACUGCUAUUUACAAAAATT against Tex16, the z-score was inactive: 1.5. In the case of GGAAAAGUCCAAUGUGACCTT against Ppyr1, the z-score is reported as inactive: -0.687. With GCCUAACCAACAAUUCUACTT against Oas1b the z-score was inactive: 0.742. In the case of “GGCAUUGUUUCAGUAUUGUTT against C030019I05Rik”, the z-score is reported as inactive: 0.414. With GGUGCUGUCCAUGGUGAAGTT against Siat8e the z-score was inactive: -0.121. In the case of GGAGUCAAAGCUCUUUAUUTT against Pitpnb, the z-score is reported as inactive: 0.375. With GCACAAUGACGCACUUACCTT against Pik3r2 the z-score was inactive: 0.377. For GGGACACCUAUUUUAUCCATT against Lrp12, the z-score was inactive: 1.45. With GGAUAUAAACCUCAUCCAATT against Mrgpre the z-score was inactive: -0.163. For “GGACUCUUACCACAUAAUGTT against 1110059E24Rik”, the z-score was inactive: -0.0894. For CCAUACAAAAAGCUUAGACTT against Slit2, the z-score was inactive: 0.215. With GAAGAAACGGCACAGCAAGTT against Egr4 the z-score was inactive: 0.0235. In the case of CCGUGUUACUAUACUCUGUTT against Pabpn1, the z-score is reported as inactive: -2.78. In the case of “GGCUGUGUUAAGACCUUAATT against 4930583H14Rik”, the z-score is reported as inactive: -2.65. For GGGCAUUAGGGUGGUAGCATT against Gapds, the z-score was inactive: -2.42. In the case of GGUACACUGAGUCUGGAAGTT against Lsm11, the z-score is reported as inactive: -0.196. In the case of GGAGAAUGCAAACAUCUCUTT against Slfn2, the z-score is reported as inactive: 1.21. For GGUAAUGGGAGCUUUUGGGTT against V1re3, the z-score was inactive: -0.166. With CCUGUUACCCUAUAUUUUGTT against V1rg12 the z-score was inactive: 1.23. With CCGACGUGUUUGUUGUUGGTT against Gtf2i the z-score was inactive: -0.858. With CCAAGCCGCUGAACAAUUUTT against Rnase6 the z-score was inactive: 0.702. With CGAUGCUAGAGAUUAAUCATT against Rdh10 the z-score was inactive: -0.642. In the case of “CCUUACCCAGCAAUAAAAATT against 1700023E05Rik”, the z-score is reported as inactive: 0.819. With “CCCAAUAAAAUAUCACCAGTT against 1700074P13Rik” the z-score was inactive: -1.73. With “GGCUCAGGACAAUGACUUCTT against 2010005J08Rik” the z-score was inactive: 0.687. With GGCCUCAGCAUUUAUCUGGTT against Rtcd1 the z-score was inactive: -0.49. For CCAGUGUAAGUUUGAUCAUTT against Zc3hdc8, the z-score was inactive: -0.0456. With GGUCUUACCCUGCCAGCAUTT against Sh3md2 the z-score was inactive: -0.915. With GGUUCUGAACAAAAAACUCTT against Pola2 the z-score was inactive: 0.0387. With CCUACAGGAUCAUAGUUAATT against Nicn1 the z-score was inactive: -0.49. In the case of GGAGAUAUUCCAGAUCUUUTT against Picalm, the z-score is reported as inactive: 0.79. With GGGUUCUGCUAUGUUAAUGTT against Hdac2 the z-score was inactive: 0.712. With GGAAAUACAAGUGGAAUUGTT against Agxt2l1 the z-score was inactive: 0.112. For GGUUAUGGACAUUCAUGCCTT against Mrg1, the z-score was inactive: 0.908. With “GGUGCUGUGUGAGCUUUCATT against 4930441O14Rik” the z-score was inactive: -0.511. With GAUGUGGGUUUUCUCUAACTT against Ly6g6c the z-score was inactive: -0.0431. For “GGCUUUCAGUAAGAAGAUGTT against E130307J07Rik”, the z-score was inactive: -0.0144. For CCUUAUGUCCCUAAGGCUATT against Mbd3, the z-score was inactive: 0.9. For GGAGCUGAAGCCAUUCAACTT against Gpx6, the z-score was inactive: 1.76. For “GCCUUUGAUAAAAGUCCGGTT against D030069K18”, the z-score was inactive: 1.14. In the case of GGGCGAUGGAAAGCCUUUUTT against Olfr354, the z-score is reported as inactive: -0.748. In the case of “GUUUUCUUGAGACAGUUAATT against 1810008A14Rik”, the z-score is reported as inactive: -0.106. In the case of GGUGGGAAAAAACAUAAGGTT against BC035537, the z-score is reported as inactive: 0.352. In the case of CGGGCUCAGGUAAAACUCUTT against Ddx31, the z-score is reported as inactive: 0.908. In the case of GGAGAUGGAUUCCAAGGUATT against Rnf40, the z-score is reported as inactive: -1.14. With GGUUUGAUGAGAAGAAACATT against Mmp3 the z-score was inactive: -1.26. For GGAAAAGAAAAGGGCGGGCTT against Tgfbr2, the z-score was inactive: -0.616. In the case of GGUCUUUGAGGAAAGAGGUTT against Hemk1, the z-score is reported as inactive: -0.22. With GGUUCAGAACGGAAGUGGCTT against Tnfrsf18 the z-score was inactive: -1.39. For CGUUUUGUAUAUAUCUGACTT against Utx, the z-score was inactive: 0.483. For “GCAUGGAGUGUGCAUUCCATT against D8Ertd325e”, the z-score was inactive: -1.55. With “GGACUUGCCUCCAGAAAAUTT against 0610041E09Rik” the z-score was inactive: 1. For GGAGAACAGUCUUGAGAAATT against Crisp3, the z-score was inactive: -0.805. In the case of GCGAAUGAAUUUUCCCAUATT against ORF34, the z-score is reported as inactive: 1.01. In the case of CCUCAUUGGUUUGACCCAGTT against Hsd17b9, the z-score is reported as inactive: 0.385. In the case of GGUUUCAGGUUGAAGACCATT against Pold2, the z-score is reported as inactive: -0.706. For GGUACUUUACGAACAUCUGTT against Sall1, the z-score was inactive: -0.857. In the case of GGAGAGCUUGUUCAAGUGCTT against BC003332, the z-score is reported as inactive: -0.877. With GGCAGAUAAGAAAAAUCCUTT against 9.83E+24 the z-score was inactive: 1.11. In the case of GGCGUAUGUUUGUUGGUUGTT against Sertad3, the z-score is reported as inactive: 0.807. In the case of “CGUCCUCAGGCAAAUGACUTT against 5730407K14Rik”, the z-score is reported as inactive: -1.46. With “GUGGCAGAAAACACUGCCATT against D11Ertd99e” the z-score was inactive: -0.512. For GGAGCAAGUGAUGAUGACCTT against Pkp1, the z-score was inactive: -1.01. With “GGAACUAGAGUCUCAAGUATT against 2610206B13Rik” the z-score was inactive: 1.1. For GGAAUGUGCGGAAGACAUATT against Gfer, the z-score was inactive: 0.244. In the case of GGUUGUUCAUGAGCCGAACTT against Rpl18, the z-score is reported as inactive: -3.01. With GCAUCGCAUAUUGGAAUGCTT against Lim2 the z-score was inactive: 0.395. With GGUGUGCGUCACCAAAAAATT against Rgs19ip1 the z-score was inactive: 0.0333. With “CCAGAUUGUCACUUGCUACTT against A430090E18Rik” the z-score was inactive: 0.499. With “CCUAGUCAUAUUCUACAGUTT against 4931409K22Rik” the z-score was inactive: -1.06. In the case of CCCAAAAGUUUUUACAGCUTT against Ttpa, the z-score is reported as inactive: 0.0903. For GAAGAGGGCACCUAGUUUCTT against Cox7b, the z-score was inactive: -0.211. In the case of “GGAAGUGACAUCACAGACGTT against 1810009N02Rik”, the z-score is reported as inactive: -0.298. In the case of GGAAAUUCUUUGGUGAAAUTT against Wbscr17, the z-score is reported as inactive: -0.364.
